We go through ten targets from the supplement of paper PMC11732987, “Enantioselective OTUD7B fragment discovery through chemoproteomics screening and high-throughput optimisation” (Communications Chemistry, 2025).

Protein sequences, listed by entry. Tags and fused reporters are not part of them. Lines headed by an entry give the natural chain unless they say otherwise; changes in a name come on top. Residues count along the entry.
UniProt P19634, 794-813: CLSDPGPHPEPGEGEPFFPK
UniProt P28370, whole entry, looked up: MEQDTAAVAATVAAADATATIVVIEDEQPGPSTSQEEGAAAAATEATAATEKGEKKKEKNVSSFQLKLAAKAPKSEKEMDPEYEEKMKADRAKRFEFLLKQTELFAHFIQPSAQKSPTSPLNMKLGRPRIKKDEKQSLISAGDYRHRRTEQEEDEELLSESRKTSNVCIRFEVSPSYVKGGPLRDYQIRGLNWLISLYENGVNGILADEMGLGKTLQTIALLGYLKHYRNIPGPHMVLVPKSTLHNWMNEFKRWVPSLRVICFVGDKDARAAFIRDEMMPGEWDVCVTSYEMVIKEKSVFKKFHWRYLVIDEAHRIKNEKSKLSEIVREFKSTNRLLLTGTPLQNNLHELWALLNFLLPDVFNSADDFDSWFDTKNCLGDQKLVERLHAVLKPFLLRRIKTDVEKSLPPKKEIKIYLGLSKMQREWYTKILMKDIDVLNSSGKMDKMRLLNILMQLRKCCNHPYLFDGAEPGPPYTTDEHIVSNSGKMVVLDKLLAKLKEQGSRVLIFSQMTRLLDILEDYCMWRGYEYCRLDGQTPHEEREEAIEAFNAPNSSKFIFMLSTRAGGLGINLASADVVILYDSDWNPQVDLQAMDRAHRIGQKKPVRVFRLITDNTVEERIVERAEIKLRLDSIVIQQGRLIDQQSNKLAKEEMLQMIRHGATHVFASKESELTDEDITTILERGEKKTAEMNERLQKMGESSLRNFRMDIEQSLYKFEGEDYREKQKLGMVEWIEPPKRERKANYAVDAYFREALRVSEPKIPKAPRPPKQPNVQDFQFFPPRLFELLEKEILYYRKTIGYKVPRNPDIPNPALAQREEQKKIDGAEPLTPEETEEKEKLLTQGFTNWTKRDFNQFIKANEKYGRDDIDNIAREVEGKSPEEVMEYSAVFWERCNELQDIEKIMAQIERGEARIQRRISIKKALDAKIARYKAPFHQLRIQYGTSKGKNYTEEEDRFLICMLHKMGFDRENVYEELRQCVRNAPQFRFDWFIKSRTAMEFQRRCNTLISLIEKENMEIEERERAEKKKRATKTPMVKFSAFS
UniProt O95149: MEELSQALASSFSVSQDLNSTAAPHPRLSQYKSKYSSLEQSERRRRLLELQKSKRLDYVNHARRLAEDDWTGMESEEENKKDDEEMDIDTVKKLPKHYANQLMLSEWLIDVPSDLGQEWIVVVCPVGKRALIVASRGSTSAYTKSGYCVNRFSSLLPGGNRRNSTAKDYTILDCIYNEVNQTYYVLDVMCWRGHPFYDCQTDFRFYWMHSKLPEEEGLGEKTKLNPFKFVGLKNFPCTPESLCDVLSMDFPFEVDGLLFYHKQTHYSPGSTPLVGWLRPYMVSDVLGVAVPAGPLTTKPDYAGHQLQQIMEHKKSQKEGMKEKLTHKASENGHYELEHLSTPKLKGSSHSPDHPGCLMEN
UniProt P63208, whole entry, looked up: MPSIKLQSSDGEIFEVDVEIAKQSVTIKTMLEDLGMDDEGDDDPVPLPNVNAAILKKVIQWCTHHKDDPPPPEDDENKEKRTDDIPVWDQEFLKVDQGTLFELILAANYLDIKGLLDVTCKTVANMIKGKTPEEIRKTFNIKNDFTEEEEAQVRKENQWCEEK
UniProt Q9H936: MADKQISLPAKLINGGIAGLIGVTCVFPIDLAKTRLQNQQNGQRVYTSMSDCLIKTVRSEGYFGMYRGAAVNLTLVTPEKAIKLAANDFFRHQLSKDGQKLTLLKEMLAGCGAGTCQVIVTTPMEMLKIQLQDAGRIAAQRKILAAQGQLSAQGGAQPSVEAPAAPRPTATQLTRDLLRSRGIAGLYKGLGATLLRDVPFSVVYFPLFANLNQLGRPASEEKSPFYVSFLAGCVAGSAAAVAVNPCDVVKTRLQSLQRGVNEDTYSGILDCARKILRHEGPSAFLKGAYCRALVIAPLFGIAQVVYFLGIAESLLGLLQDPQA
UniProt A6NHR9: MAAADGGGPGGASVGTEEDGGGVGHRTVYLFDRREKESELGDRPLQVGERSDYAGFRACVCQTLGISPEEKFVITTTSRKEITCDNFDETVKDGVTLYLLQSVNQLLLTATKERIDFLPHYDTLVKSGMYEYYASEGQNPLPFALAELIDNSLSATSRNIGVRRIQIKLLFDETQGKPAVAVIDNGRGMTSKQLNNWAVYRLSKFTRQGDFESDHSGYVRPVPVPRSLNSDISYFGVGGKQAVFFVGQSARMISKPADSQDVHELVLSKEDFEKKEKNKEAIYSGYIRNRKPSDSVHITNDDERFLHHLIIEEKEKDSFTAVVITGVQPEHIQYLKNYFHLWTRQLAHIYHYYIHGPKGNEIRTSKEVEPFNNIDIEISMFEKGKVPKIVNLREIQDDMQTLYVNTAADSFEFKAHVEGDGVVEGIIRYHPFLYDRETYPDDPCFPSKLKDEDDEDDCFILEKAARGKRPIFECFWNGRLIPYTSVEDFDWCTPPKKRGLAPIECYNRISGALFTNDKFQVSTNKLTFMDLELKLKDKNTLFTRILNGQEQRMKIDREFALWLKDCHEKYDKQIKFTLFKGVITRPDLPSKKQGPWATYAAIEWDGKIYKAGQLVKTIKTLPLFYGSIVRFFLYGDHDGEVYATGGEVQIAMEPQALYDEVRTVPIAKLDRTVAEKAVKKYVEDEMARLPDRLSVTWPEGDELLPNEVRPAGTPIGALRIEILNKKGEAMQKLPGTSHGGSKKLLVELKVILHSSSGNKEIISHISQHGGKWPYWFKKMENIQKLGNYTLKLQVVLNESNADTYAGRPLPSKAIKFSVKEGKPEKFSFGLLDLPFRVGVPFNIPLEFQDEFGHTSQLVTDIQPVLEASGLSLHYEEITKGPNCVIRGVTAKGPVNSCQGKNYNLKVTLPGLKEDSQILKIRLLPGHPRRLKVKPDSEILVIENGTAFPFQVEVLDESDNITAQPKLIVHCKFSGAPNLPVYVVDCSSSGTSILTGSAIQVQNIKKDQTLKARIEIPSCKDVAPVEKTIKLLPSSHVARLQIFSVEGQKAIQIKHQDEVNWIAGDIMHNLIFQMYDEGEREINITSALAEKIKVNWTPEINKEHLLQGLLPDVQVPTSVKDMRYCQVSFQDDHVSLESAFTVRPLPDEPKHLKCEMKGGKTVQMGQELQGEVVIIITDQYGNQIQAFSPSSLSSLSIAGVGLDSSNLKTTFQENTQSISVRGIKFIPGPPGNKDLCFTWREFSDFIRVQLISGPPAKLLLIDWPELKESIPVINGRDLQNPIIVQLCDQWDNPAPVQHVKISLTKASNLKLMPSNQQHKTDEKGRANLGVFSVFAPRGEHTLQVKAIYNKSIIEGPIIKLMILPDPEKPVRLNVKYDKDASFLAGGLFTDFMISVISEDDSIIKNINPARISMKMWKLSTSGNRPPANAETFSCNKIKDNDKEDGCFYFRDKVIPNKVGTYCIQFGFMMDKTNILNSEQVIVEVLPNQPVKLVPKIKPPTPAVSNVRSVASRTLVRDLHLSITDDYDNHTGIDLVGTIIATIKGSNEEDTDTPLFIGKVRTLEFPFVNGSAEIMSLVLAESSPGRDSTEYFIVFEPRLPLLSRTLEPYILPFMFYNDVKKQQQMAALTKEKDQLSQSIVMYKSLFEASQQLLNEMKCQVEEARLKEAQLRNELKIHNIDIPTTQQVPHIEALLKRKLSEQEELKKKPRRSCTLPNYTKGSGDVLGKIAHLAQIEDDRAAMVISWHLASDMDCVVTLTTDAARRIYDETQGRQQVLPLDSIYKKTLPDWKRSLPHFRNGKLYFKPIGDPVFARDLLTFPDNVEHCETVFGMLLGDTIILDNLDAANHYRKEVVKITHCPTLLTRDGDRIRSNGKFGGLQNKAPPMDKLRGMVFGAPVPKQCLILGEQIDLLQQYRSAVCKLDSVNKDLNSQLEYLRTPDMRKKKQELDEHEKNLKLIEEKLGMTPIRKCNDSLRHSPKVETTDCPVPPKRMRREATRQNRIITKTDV
UniProt Q99523, whole entry, looked up: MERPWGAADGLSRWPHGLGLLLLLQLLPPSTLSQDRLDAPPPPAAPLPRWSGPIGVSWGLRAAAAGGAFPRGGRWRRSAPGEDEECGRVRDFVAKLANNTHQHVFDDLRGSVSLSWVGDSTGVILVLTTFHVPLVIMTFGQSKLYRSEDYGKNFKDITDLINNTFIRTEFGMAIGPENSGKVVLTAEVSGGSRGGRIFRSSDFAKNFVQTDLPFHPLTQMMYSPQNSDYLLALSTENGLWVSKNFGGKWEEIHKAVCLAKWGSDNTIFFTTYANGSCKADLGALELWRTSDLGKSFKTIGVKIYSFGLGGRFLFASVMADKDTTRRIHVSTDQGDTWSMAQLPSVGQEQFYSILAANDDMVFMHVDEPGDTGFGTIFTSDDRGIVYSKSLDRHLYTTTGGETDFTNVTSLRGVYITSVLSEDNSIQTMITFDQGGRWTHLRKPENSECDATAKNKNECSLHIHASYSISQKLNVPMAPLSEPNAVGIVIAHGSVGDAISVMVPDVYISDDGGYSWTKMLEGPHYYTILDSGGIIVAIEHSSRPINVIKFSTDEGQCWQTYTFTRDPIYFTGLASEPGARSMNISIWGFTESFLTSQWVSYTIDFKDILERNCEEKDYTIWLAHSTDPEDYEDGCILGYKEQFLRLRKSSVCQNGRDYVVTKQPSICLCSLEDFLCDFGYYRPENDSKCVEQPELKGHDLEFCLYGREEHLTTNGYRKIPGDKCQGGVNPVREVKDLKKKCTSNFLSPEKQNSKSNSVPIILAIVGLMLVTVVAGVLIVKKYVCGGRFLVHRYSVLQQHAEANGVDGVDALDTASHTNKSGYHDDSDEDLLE
UniProt Q9BXS9: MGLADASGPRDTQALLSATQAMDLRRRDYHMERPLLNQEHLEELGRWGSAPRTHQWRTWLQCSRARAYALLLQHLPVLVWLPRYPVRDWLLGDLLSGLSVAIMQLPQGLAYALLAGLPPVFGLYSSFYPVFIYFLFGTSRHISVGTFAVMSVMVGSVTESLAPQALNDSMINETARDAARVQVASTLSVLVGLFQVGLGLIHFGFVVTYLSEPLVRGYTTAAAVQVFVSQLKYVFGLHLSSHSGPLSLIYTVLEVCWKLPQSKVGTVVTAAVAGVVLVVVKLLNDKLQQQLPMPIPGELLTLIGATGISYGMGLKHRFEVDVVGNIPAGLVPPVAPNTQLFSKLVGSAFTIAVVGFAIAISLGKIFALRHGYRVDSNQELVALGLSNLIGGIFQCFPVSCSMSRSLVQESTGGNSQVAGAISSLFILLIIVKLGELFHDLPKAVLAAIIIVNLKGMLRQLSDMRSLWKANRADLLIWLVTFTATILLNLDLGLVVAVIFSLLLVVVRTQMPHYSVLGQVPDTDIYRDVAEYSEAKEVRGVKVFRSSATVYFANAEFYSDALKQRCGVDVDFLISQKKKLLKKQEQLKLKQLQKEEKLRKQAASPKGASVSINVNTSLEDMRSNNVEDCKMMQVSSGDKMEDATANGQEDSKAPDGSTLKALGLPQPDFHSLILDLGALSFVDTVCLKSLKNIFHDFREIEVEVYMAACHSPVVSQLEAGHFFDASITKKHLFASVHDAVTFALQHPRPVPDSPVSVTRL
UniProt Q13596, whole entry, looked up: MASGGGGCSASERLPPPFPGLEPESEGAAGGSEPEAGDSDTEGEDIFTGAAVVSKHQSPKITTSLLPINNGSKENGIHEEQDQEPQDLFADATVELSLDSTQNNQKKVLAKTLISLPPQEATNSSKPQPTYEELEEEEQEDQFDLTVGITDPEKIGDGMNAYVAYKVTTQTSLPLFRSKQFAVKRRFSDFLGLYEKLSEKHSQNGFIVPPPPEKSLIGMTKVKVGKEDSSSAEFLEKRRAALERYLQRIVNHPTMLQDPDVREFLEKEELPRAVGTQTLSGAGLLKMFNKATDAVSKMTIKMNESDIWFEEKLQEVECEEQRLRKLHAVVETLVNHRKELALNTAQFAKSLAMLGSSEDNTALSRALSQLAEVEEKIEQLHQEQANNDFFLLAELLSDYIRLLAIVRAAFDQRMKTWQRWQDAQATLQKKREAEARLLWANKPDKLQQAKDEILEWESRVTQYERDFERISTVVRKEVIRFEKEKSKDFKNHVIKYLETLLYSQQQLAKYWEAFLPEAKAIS
UniProt Q8TBP6: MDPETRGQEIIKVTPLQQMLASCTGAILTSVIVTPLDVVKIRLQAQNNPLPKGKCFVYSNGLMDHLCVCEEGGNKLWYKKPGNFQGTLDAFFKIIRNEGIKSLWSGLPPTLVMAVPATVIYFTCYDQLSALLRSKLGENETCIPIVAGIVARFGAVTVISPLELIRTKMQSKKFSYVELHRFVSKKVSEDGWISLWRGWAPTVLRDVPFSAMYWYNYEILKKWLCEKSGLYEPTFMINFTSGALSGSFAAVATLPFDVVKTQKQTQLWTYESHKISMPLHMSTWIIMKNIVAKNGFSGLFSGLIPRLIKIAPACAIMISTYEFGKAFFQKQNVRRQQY

Some of the results follow. The data scatter; read single values as rough.

Compound in assay [1]: ClCC(=O)N[C@@H]1CCCc2ccccc12
Kind of assay: log2 mean competition ratio of IA-DTB cysteine labelling (DMSO/compound) (log2 ratio); higher = stronger cysteine engagement by compound. Conditions: treatment time: 4 h, cell line lysate: HEK293T. As for the experimental part: (§1)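 IA-DTB competitive cysteine chemoproteomics in HEK293T RIPA lysate. Lysates were treated with compound 29 or 30 at 50 or 200 µM for 4 h, then IA-DTB (500 µM, 1 h), trypsin-digested, NeutrAvidin-enriched and analysed by diaPASEF. Competition ratio = intensity DMSO / intensity compound (n=4 treated, n=64 DMSO); binding: mean log2 CR ≥ 1 and p ≤ 0.05 plus QC filters. Target is the cysteine site.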

Compound in assay [2]: ClCC(=O)N[C@H]1CCCc2ccccc12
The assay is described as above. The settings on record: treatment time: 4 h, cell line lysate: HEK293T. As for the experimental part:
as §1

Take SLC9A1 C794 (UniProt P19634): the “log2 mean competition ratio” value in assay [1] (50 µM) is -0.136; in assay [1] (200 µM), 0.154; in assay [2] (50 µM), -0.446; in assay [2] (200 µM), -0.0352.

On to SMARCA1 C377 (UniProt P28370), for which the “log2 mean competition ratio” value stood at 0.0391 in assay [1] (50 µM), 0.0668 in assay [1] (200 µM), 0.0758 in assay [2] (50 µM) and 0.104 in assay [2] (200 µM).

On to SNUPN C199 (UniProt O95149), for which the “log2 mean competition ratio” value was 0.223 in assay [1] (50 µM), -0.274 in assay [1] (200 µM), -0.401 in assay [2] (50 µM) and -0.295 in assay [2] (200 µM).

As for SKP1 C160 (UniProt P63208), the “log2 mean competition ratio” value in assay [1] (50 µM) is -0.0753; in assay [1] (200 µM), -0.0918; in assay [2] (50 µM), 0.331; in assay [2] (200 µM) it was 0.127.

Take SLC25A22 C271 (UniProt Q9H936): the “log2 mean competition ratio” value in assay [1] (50 µM) is -0.248; in assay [1] (200 µM) it was 0.143; in assay [2] (50 µM), 0.0144; in assay [2] (200 µM), 0.199.

As to SMCHD1 C444 (UniProt A6NHR9), the “log2 mean competition ratio” value is -0.209 in assay [1] (50 µM), -0.204 in assay [1] (200 µM), 8.42e-05 in assay [2] (50 µM) and 0.0274 in assay [2] (200 µM).

As for SORT1 C86 (UniProt Q99523), the “log2 mean competition ratio” value in assay [1] (50 µM) was -0.0667; in assay [1] (200 µM) it was 0.377; in assay [2] (50 µM), -0.159; in assay [2] (200 µM) it was 0.466.

In the case of SLC26A6 C628 (UniProt Q9BXS9), the “log2 mean competition ratio” value in assay [1] (50 µM) was -0.251; in assay [1] (200 µM) it was 0.121; in assay [2] (50 µM) it was -0.0462; in assay [2] (200 µM), 0.302.

On to SNX1 C318 (UniProt Q13596), for which the “log2 mean competition ratio” value in assay [1] (50 µM) was -0.0737; in assay [1] (200 µM) it was -0.0854; in assay [2] (50 µM), -0.323; in assay [2] (200 µM) it was -0.121.

For SLC25A40 C142 (UniProt Q8TBP6), the “log2 mean competition ratio” value was -0.211 in assay [1] (50 µM), -0.0473 in assay [1] (200 µM), 0.0038 in assay [2] (50 µM) and -0.498 in assay [2] (200 µM).
